Assay results as given in PMC9156741, “Blocking phospholamban with VHH intrabodies enhances contractility and relaxation in heart failure” (Nature Communications, 2022).
No constants are given. Whether binding was seen depends on the method and setting. Some results given as binding are weak or reduced against the parent protein; the word gives no strength.

Target: T1, PLN peptide IV (biotin-…-NH2)
T1 sequence (peptide, amino terminal linked biotin-group; C-terminal amidation): EKVQYLTRSAIRRASTIE
Assay: ELISA; VHHs expressed in small-scale E. coli HB2151 cultures; biotinylated peptide (peptide VI captured on Nunc maxisorb plates coated with 2 ug/ml neutravidin); only the target purified

B1: VHH B4 (VHH)
VHH: EVQLQESGGGLVQAGGSLRLSCAASGFSFYRHAMGWFRQAPGKEREWVAEIDWEGGYTYYADSVKGRFTISRDNAKNTVYLQMNSLKPEDTAVYYCAAGRDLYAYWGQGTQVTVSS
notes: VHH B4, from the synthetic LlamdA phage-display VHH library (llama VHH framework); also called clone B4; source: E. coli HB2151, small-scale cultures induced with IPTG (ELISA); expressed and purified according to previously described protocols (SPR)
binding: binds
